In publication PMC5584982:
These are yes or no findings as the source states them, for the method shown. Binding seen in cells or lysates may run through a third protein. Here binding means that the protein was enriched with, or labelled near, the bait; the list need not be complete.

Protein sequences, listed by entry. Tags and fused reporters are not part of them. Lines headed by an entry give the natural chain unless they say otherwise; changes in a name come on top.
UniProt Q389I9: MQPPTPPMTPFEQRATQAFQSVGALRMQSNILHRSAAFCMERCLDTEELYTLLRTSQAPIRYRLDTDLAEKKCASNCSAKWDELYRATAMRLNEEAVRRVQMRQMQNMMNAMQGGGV
UniProt Q57Z59: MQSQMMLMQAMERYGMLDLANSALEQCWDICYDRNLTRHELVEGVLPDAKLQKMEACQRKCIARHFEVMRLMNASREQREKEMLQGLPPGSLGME
UniProt Q585K7: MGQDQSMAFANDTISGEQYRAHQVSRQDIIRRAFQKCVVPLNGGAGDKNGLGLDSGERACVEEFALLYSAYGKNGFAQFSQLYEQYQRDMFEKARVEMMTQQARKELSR

Key:
TbTim13-HA (T. brucei) = TbTim13-HA (T. brucei) (UniProt Q389I9); assay: affinity purification with mass spectrometry; SILAC (induced versus uninduced cells mixed); soluble IMS fraction after 0.2% digitonin; anti-HA immunoprecipitation, quantitative MS, three biological replicates
TbTim11-HA (T. brucei) = TbTim11-HA (T. brucei) (UniProt Q57Z59); assay: as above

binding (TbTim13-HA (T. brucei)): binds
binding (TbTim11-HA (T. brucei)): binds
Substance: TbTim12 (endogenous) (from UniProt Q585K7)
